# Source: the supplement of paper PMC10735217
# Where a name gives a salt, the structure may show the parent alone. This is one part of the list. This data set is noisy: repeats of one test often differ as much as different tests do.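 The human kidney-derived cells carry a stably integrated construct of eight TEAD-binding elements driving luciferase, read by luminescence in a drug-repurposing library screen. A compound counts as a hit when its signal is more than five robust Z scores above the plate mean.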
# Test system: HEK293A TEAD-LUC reporter
# Experiment: TEAD-luciferase reporter activity (YAP activation), robust Z score vs plate; higher = stronger YAP/TEAD activation
# Conditions: 24 h
Compound,TEAD-luciferase reporter activity (compound concentration: 200 nM),TEAD-luciferase reporter activity (compound concentration: 10 uM),TEAD-luciferase reporter activity (compound concentration: 2 uM)
O=C1NCc2ccccc2CC12CCCN2CC1CC=CCC1 (configuration not stated),inactive: -0.38,inactive: -0.691,–
CC(=O)OCC(=O)[C@@]1(O)CC[C@H]2[C@@H]3C[C@H](C)C4=CC(=O)C=CC4(C)[C@H]3[C@@H](O)CC21C (some centres not stated) [Methylprednisolone acetate],inactive: 0.534,inactive: 1.93,inactive: 1.35
CN1CCN(CC(=O)[C@@]2(O)CC[C@H]3[C@@H]4CCC5=CC(=O)C=C[C@]5(C)[C@H]4[C@@H](O)C[C@@]32C)CC1,inactive: -0.885,inactive: 0.275,inactive: -0.747
Nc1ncc(-c2cnn(CCO)c2)c2scc(-c3ccc(NC(=O)Nc4cccc(F)c4)cc3)c12,inactive: 2.27,inactive: -0.803,inactive: -2.17
COc1ccc2c(Oc3ccc(OCCN4CCCCC4)cc3)c(-c3ccc(S(C)(=O)=O)cc3)ccc2c1,inactive: -0.981,inactive: -1.4,inactive: -1.89
O=C(N[C@@H](Cc1ccc(-c2ccccc2)cc1)C(=O)O)c1ccc(-c2ccc(C(F)(F)F)cc2)cc1,inactive: -1.93,inactive: 3.97,inactive: -0.851
N=C(N)c1ccc(CNC(=O)[C@@H]2CCCN2C(=O)[C@H](NCC(=O)O)C(c2ccccc2)c2ccccc2)s1,inactive: -1.15,inactive: 0.294,inactive: -0.76
Cc1ccc(CCCC(=O)c2ccc(CCC(C)(N)CO)n2C)cc1 (configuration not stated),inactive: 0.368,inactive: 2.3,inactive: 0.0718
CC(=O)Oc1ccc(C(c2ccc(OC(C)=O)cc2)c2ccccn2)cc1 [Viraplex],–,–,inactive: 0.475
CC(=O)Oc1ccc(C(c2ccc(OC(C)=O)cc2)c2ccccn2)cc1 [Bisacodyl],inactive: 0.451,inactive: -2.04,–
c1ccc(CCNCCOc2ccccc2)cc1,inactive: 2.62,inactive: 2.24,inactive: -0.48
CC1=C(C)C(=O)C(Cc2cccnc2)=C(C)C1=O,inactive: -0.268,inactive: 0.327,inactive: -0.689
CC(C)n1c(=O)nc(-c2ccc(F)cc2)c2cc3c(cc21)OCO3,inactive: -1.16,inactive: -1.91,inactive: -1.79
"CCNC(=O)[C@@H]1CCCN1C(=O)[C@H](CCCNC(=N)N)NC(=O)[C@H](CC(C)C)NC(=O)[C@@H](CC(C)C)NC(=O)[C@H](Cc1ccc(O)cc1)NC(=O)[C@H](CO)NC(=O)[C@H](Cc1c[nH]c2ccccc12)NC(=O)[C@H](Cc1c[nH]cn1)NC(=O)[C@@H]1CCC(=O)N1 [leuprorelin acetate, Camurus]",inactive: -0.898,inactive: 1,–
CCNC(=O)[C@@H]1CCCN1C(=O)[C@H](CCCNC(=N)N)NC(=O)[C@H](CC(C)C)NC(=O)[C@@H](CC(C)C)NC(=O)[C@H](Cc1ccc(O)cc1)NC(=O)[C@H](CO)NC(=O)[C@H](Cc1c[nH]c2ccccc12)NC(=O)[C@H](Cc1c[nH]cn1)NC(=O)[C@@H]1CCC(=O)N1 [leuprorelin acetate],–,–,inactive: -0.826
COc1cccc(-c2ccc(C(=O)NCCNC(=O)Cc3cccc(Cl)c3)cc2)c1,inactive: -0.929,active: 12.4,–
CC(C)(C)C(=O)N1CCCC1C(=O)N1CCC(c2ccccc2)CC1 (configuration not stated),inactive: -1.19,inactive: 2.21,–
CCCc1cc(C(N)=S)ccn1,inactive: -1.07,inactive: -0.856,–
CCCc1cc(C(N)=S)ccn1 [Protionamide],–,–,inactive: 3.78

Compound,TEAD-luciferase reporter activity (compound concentration: 200 nM),TEAD-luciferase reporter activity (compound concentration: 10 uM),TEAD-luciferase reporter activity (compound concentration: 2 uM)
NC(=O)C1CCN(c2ncccc2NC(=O)c2coc(N3CCOCC3)n2)CC1,inactive: 0.0179,inactive: -0.31,inactive: -0.126
CC(COc1ccc(N2CCN(c3ccncc3)CC2)cc1)CC(=O)O (configuration not stated),inactive: -1.17,inactive: 0.314,inactive: 0.156
CC1(C)Oc2ncnc(N)c2N=C1c1ccc([C@H]2CC[C@H](CC(=O)O)CC2)cc1,inactive: -0.626,inactive: 0.886,inactive: 0.108
Cc1ccc2c(c1)c(-c1ccccc1)[n+]1n2CCC1,inactive: -1.64,inactive: -0.862,inactive: 0.274
CCn1ccnc1CC1COc2ccccc2O1 (configuration not stated) [Imiloxan],–,–,inactive: 1.64
CCn1ccnc1CC1COc2ccccc2O1 (configuration not stated) [Imiloxan hydrochloride],inactive: -1.12,inactive: -1.41,–
CC(=O)N1CCC2(CC1)CN(C(=O)CCCN(C)C)Cc1ccccc1O2,inactive: -1.47,active: 6.62,–
CSc1ccc(-c2nc3n(c2-c2ccncc2)CCC3)cc1,inactive: 0.35,inactive: 0.399,inactive: -1.14
C[C@@H](NC(=O)c1ccccc1OC(=O)CCCC[n+]1ccccc1)C(N)=O [analog of AG-9901],inactive: 0.76,inactive: -0.515,inactive: 0.302
O=C(NCc1ccc(OC(F)(F)F)c(F)c1)[C@H]1CN(c2nc3nc(C4CC4)ncc3s2)CCN1S(=O)(=O)c1ccc(C(F)(F)F)cc1,inactive: 0.764,inactive: 1.08,inactive: 2.2
O=C(O)C1CC2CCC1CC2 (configuration not stated),inactive: -0.823,inactive: 0.141,–
O=C(O)C1CC2CCC1CC2 (configuration not stated) [Sacricin],–,–,inactive: -1.03
CCn1ccnc1 [1-ethyl-1H-imidazole],inactive: 0.508,inactive: -1.48,inactive: -0.968
CN(C(=O)c1c(O)c2ccccc2n(C)c1=O)c1ccccc1 [Roquinimex],inactive: -0.374,inactive: -1.4,inactive: -1.53
CC(C)(CO)n1cc(C(=O)c2cncc(NC(=O)Cc3ccc(Cl)cn3)c2)c2cnc(N)nc21,inactive: -1.29,inactive: -0.252,inactive: -2.2
COc1cccc2[nH]c3c4c(c5c(c3c12)C(=O)N(CN1CCN(C)CC1)C5=O)CCC4,inactive: -1.07,inactive: -0.176,inactive: -0.181
O=C(O)C(=O)Nc1cccc(-c2nnn[nH]2)c1 [acitazanolast],inactive: 1.43,inactive: -0.334,inactive: -0.919
CCO/N=C(\C(=O)N[C@@H]1C(=O)N2C(C(=O)O)=C(Sc3nc(-c4cc[n+](C)cc4)cs3)CS[C@H]12)c1nsc(NP(=O)(O)O)n1 [Ceftaroline fosamil],inactive: -0.557,inactive: 2.06,inactive: -1.62
CC(C)=CCC[C@](C)(O[C@@H]1O[C@H](CO[C@@H]2OC[C@H](O)[C@H](O)[C@H]2O)[C@@H](O)[C@H](O)[C@H]1O)[C@H]1CC[C@]2(C)[C@@H]1[C@H](O)C[C@@H]1[C@@]3(C)CC[C@H](O[C@@H]4O[C@H](CO)[C@@H](O)[C@H](O)[C@H]4O[C@@H]4O[C@H](CO)[C@@H](O)[C@H](O)[C@H]4O)C(C)(C)C3CC[C@]12C (some centres not stated) [Ginsenoside Rb2],inactive: -0.929,inactive: -0.518,inactive: 0.623

Compound,TEAD-luciferase reporter activity (compound concentration: 200 nM),TEAD-luciferase reporter activity (compound concentration: 10 uM),TEAD-luciferase reporter activity (compound concentration: 2 uM)
c1cc(OCCCc2nnn[nH]2)cc(OCc2ccc3ccccc3n2)c1,inactive: 0.853,inactive: 0.0673,inactive: -1.36
CN(C(=O)CO/N=C(\c1ccccc1)c1ccc2c(c1)CN1CC(=O)NC1=N2)C1CCCCC1,inactive: -1.33,inactive: 3.73,inactive: -0.421
CN1CCC(=C2c3ccccc3CCn3c(C=O)cnc32)CC1 [alcaftadine],inactive: -1.37,active: 5.85,inactive: -0.631
"CC(=O)Nc1ccc(O)cc1 [acetaminophen, Kowa]",inactive: -1.37,inactive: 0.605,–
CC(=O)Nc1ccc(O)cc1 [acetaminophen],–,–,inactive: 0.23
O=C(CSCCO)NCCCOc1cccc(CN2CCCCC2)c1,inactive: 0.211,inactive: -0.594,inactive: -1.23
O=C1Nc2ccc(Cl)cc2[C@@](/C=C/C2CC2)(C(F)(F)F)N1,inactive: -2.02,inactive: 2.58,inactive: 0.588
CC(=O)Nc1c(I)c(C(=O)O)c(I)c(N(C)C(C)=O)c1I,inactive: -0.893,inactive: 2.16,inactive: -0.848
CN1CCCC1CCNS(=O)(=O)c1ccc2c(c1)CN(CC1CCCCC1)CC2 (configuration not stated),inactive: 0.81,inactive: -0.401,inactive: 1.74
CC(=O)c1ccc(O)c(O)c1O,inactive: 0.959,inactive: 3.56,inactive: 0.446
Cc1[nH]c(=O)c(C#N)cc1-c1ccc2nccn2c1 [lopri hydrochloride],inactive: -1.94,–,–
Cc1[nH]c(=O)c(C#N)cc1-c1ccc2nccn2c1 [lopri   hydrochloride],–,inactive: -0.0125,–
Cc1[nH]c(=O)c(C#N)cc1-c1ccc2nccn2c1 [lopri    hydrochloride],–,–,inactive: -1.6
Fc1ccc2[nH]c3c(c2c1)CN(CCc1ccncc1)CC3,inactive: -1.36,inactive: 0.266,inactive: -1.23
CCCCCc1c(-c2ccc3cc(OCc4nnn[nH]4)ccc3c2)n(Cc2ccccc2)c2ccccc12 [diaplasinin],inactive: -0.528,inactive: -0.958,inactive: -0.568
Cc1[nH]c(/C=C2\C(=O)Nc3ccccc32)c(C)c1CCC(=O)O,inactive: -1.81,inactive: -0.368,–
Cc1[nH]c(/C=C2\C(=O)Nc3ccccc32)c(C)c1CCC(=O)O [orantinib],–,–,inactive: 0.2
C#Cc1cccc(Nc2ncnc3cc(OC)c(OCCCCCCC(=O)NO)cc23)c1,active: 6.64,active: 40.2,active: 18.4

# Random excerpt: two entries already listed, in no set order.
Compound,TEAD-luciferase reporter activity (compound concentration: 200 nM),TEAD-luciferase reporter activity (compound concentration: 10 uM),TEAD-luciferase reporter activity (compound concentration: 2 uM)
CN(C(=O)CO/N=C(\c1ccccc1)c1ccc2c(c1)CN1CC(=O)NC1=N2)C1CCCCC1,inactive: -1.33,inactive: 3.73,inactive: -0.421
CC(=O)Nc1c(I)c(C(=O)O)c(I)c(N(C)C(C)=O)c1I,inactive: -0.893,inactive: 2.16,inactive: -0.848
